Laboratory results published in patent publication US9180155B2, “Compositions from Nigella sativa” (Bio Nexus, Ltd, priority 2013, dated 2015).
At least one compound was matched to its structure with a doubt left.

Key:
3T3-L1 adipocytes = experiment: Lipolysis (glycerol assay) in 3T3-L1 adipocytes; format: cell-based, murine; details: forskolin 82 μg/mL, test materials 5 μg/mL (FIG. 9)
Experimental: (§1) Culture and treatment of 3T3-L1 adipocytes and C2C12 myocytes was as described in Example 5. Concentrations of the forskolin positive control and test materials are listed in FIG. 9 for adipocytes and FIG. 10 for myocytes. Free fatty acid release from 3T3-L1 adipocytes or C2C12 myocytes was quantified by measuring glycerol secretion into the medium. Glycerol was measured spectrophotometrically using the Free Glycerol Determination Kit ([…], Sigma) and an EL 312e Microplate BIO-KINETICS spectrophotometer (BioTek, Winooski, Vt.). Glycerol release from adipocytes and myocytes was expressed, respectively, as the percent increase in free fatty acid secretion (FIG. 9) and relative glycerol content (glycerol index FIG. 10) ±95% confidence intervals of eight observations for one of three representative experiments.

C2C12 myocytes = experiment: Lipolysis (glycerol assay) in C2C12 myocytes; format: cell-based, murine; details: 5 or 2.5 μg/mL (FIG. 10)
Experimental: as §1

C=C[C@@]1(C)CC(=O)[C@]2(O)[C@@]3(C)[C@@H](O)CCC(C)(C)[C@@H]3[C@H](O)[C@H](OC(C)=O)[C@@]2(C)O1 [forskolin]
free fatty acid release in adipocytes (3T3-L1 adipocytes): induced free fatty acid release
free fatty acid release in myocytes (C2C12 myocytes): induced free fatty acid release
